PubChem BioAssay AID1508588 | Peter MacCallum Cancer Centre | 2020

Test: 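Genome-wide search for knock-downs that heighten vemurafenib action in melanoma cells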 (primary screen)
Cell system: human WM266.4 melanoma cells (BRAF V600 mutant)
Knock-down reagent: siRNA pool against human genes, 40 nM
Duration: 96 h from transfection to read-out
Treatment: vemurafenib 300 nM (about IC25), added 48 h after transfection, for 48 h; comparison arm got DMSO vehicle only
Detection: 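Ratios to non-targeting siRNA for cell gain, counted as DAPI nuclei after minus before drug and averaged over two replicates, and for absorbance-read medium lactate per cell; both binned into fold-change classes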
Reading the numbers: cell gain with vemurafenib: higher = more cell gain than with non-targeting siRNA; lactate per cell with vemurafenib: higher = more lactate made per cell
Rule for the call: 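Enhancement is called by pairing each knock-down's vehicle-arm and drug-arm fold-change classes for viability or glycolysis; which class combinations qualify is not given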
Calls: active = enhances vemurafenib effect; inactive = no enhancement seen
Shown is an unselected part of about 18,000 reagents. In the full data, 790 (4.4%) are marked active. 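Calls rest on a combination of fold-change classes in drug and vehicle arms, not all shown here.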 Entries without a mark were called inactive. Reagent sequences are not shown.

| target | cell gain with vemurafenib | lactate per cell with vemurafenib |
| --- | --- | --- |
| RNF121 (ring finger protein 121) | 1.11 | 0.76 |
| MT1F (metallothionein 1F) | 0.64 | 1.42 |
| BNC1 (basonuclin zinc finger protein 1) | 0.57 | 0.66 |
| MAS1L (MAS1 proto-oncogene like, G protein-coupled receptor) | 0.27 | 1.12 |
| PKDCC (protein kinase domain containing, cytoplasmic) | 0.75 | 0.82 |
| USP24 (ubiquitin specific peptidase 24) | 0.27 | 0.82 |
| RDH12 (retinol dehydrogenase 12) | 0.85 | 0.66 |
| FAM120A (family with sequence similarity 120 member A) | 0.18 | 1.65 |
| RNASEH2C (ribonuclease H2 subunit C) | 0.54 | 1.76 |
| PTPN13 (protein tyrosine phosphatase non-receptor type 13) | 0.84 | 0.96 |
| COPZ2 (coat protein complex I subunit zeta 2) | -0.09 | 3.43 |
| ZNRD2 (zinc ribbon domain containing 2) | 0.39 | 1.76 |
| AXL (AXL receptor tyrosine kinase) | 0.71 (active) | 0.18 |
| PCSK7 (proprotein convertase subtilisin/kexin type 7) | 0.55 | 1.8 |
| PARS2 (prolyl-tRNA synthetase 2, mitochondrial) | 0.6 | 1.23 |
| PPP2CA (protein phosphatase 2 catalytic subunit alpha) | 0.41 | 1.46 |
| MOS (MOS proto-oncogene, serine/threonine kinase) | 0.67 | 1.14 |
| COL3A1 (collagen type III alpha 1 chain) | 0.29 | 0.66 |
| HNRNPAB (heterogeneous nuclear ribonucleoprotein A/B) | 0.66 | 1.19 |
| WDR5 (WD repeat domain 5) | 0.51 | 1.08 |
| PAQR5 (progestin and adipoQ receptor family member 5) | 0.97 | 0.36 |
| ENTPD2 (ectonucleoside triphosphate diphosphohydrolase 2) | 0.28 | 0.6 |
| SF3A1 (splicing factor 3a subunit 1) | 0.15 | 1.44 |
| GGT7 (gamma-glutamyltransferase 7) | 0.78 | 0.75 |
| ADAMTSL4 (ADAMTS like 4) | 0.45 | 0.81 |
| PXMP4 (peroxisomal membrane protein 4) | 0.73 | 0.51 |
| SLC39A10 | 0.35 | 1.08 |
| BCL3 (BCL3 transcription coactivator) | 0.29 | 2 |
| BTNL8 (butyrophilin like 8) | 1.08 | 0.47 |
| TERF2 (telomeric repeat binding factor 2) | 0.49 | 0.71 |
| BTAF1 (B-TFIID TATA-box binding protein associated factor 1) | 0.27 | 0.86 |
| PRY (PTPN13 like Y-linked) | 0.15 (active) | 0.7 |
| EARS2 (glutamyl-tRNA synthetase 2, mitochondrial) | 0.04 | 1.17 |
| TMA7 (translation machinery associated 7 homolog) | 0.04 | 2.18 |
| PMCH (pro-melanin concentrating hormone) | 0.54 | 0.55 |
| NRSN2 (neurensin 2) | 0.67 | 1.43 |
| RBP2 (retinol binding protein 2) | 0.48 | 0.88 |
| BHLHE40 (basic helix-loop-helix family member e40) | 0.76 | 1.21 |
| GLT8D1 (glycosyltransferase 8 domain containing 1) | 1.07 | 0.75 |
| BASP1 (brain abundant membrane attached signal protein 1) | 0.25 (active) | 0.6 |
| CSKMT (citrate synthase lysine methyltransferase) | 0.35 (active) | 0.12 |
| ZNF536 (zinc finger protein 536) | 0.9 | 1.2 |
| KLF9 (KLF transcription factor 9) | 0.35 | 0.72 |
| PRR15L (proline rich 15 like) | 0.21 | 1.03 |
| PIWIL3 (piwi like RNA-mediated gene silencing 3) | 0.46 | 1.9 |
| CMTM6 (CKLF like MARVEL transmembrane domain containing 6) | 0.77 | 0.58 |
| TRIM23 (tripartite motif containing 23) | 1.01 | 0.82 |
| CBLN2 (cerebellin 2 precursor) | 0 | 0.74 |
| CHRM3 (cholinergic receptor muscarinic 3) | 0.64 | 1.19 |
| RAB21 (RAB21, member RAS oncogene family) | 0.61 | 0.77 |
| CEP63 (centrosomal protein 63) | 0.56 | 0.84 |
| MUC7 (mucin 7, secreted) | 0.38 | 1.75 |
| SSH2 (slingshot protein phosphatase 2) | 0.78 | 0.7 |
| MAP3K4 (mitogen-activated protein kinase kinase kinase 4) | 0.52 | 1.12 |
| PTRH2 (peptidyl-tRNA hydrolase 2) | 0.37 | 1.17 |
| BZW1 (basic leucine zipper and W2 domains 1) | 0.01 | 1.5 |
| SLC13A2 | 0.81 | 1.23 |
| TMEM128 (transmembrane protein 128) | -0.09 (active) | 0.36 |
| DUSP2 (dual specificity phosphatase 2) | 0.53 | 0.77 |
| PPIL3 (peptidylprolyl isomerase like 3) | 0.81 (active) | 0.35 |
| PDC (phosducin) | 0.82 | 1.08 |
| EGF (epidermal growth factor) | 0.44 | 1.51 |
| ACYP2 (acylphosphatase 2) | 0.75 | 1.03 |
| ENPP2 (ectonucleotide pyrophosphatase/phosphodiesterase 2) | 0.13 | 0.94 |
| SNRPC (small nuclear ribonucleoprotein polypeptide C) | 0.14 | 1.4 |
| HNRNPCL1 (heterogeneous nuclear ribonucleoprotein C like 1) | 0.39 | 0.85 |
| SEMA6B (semaphorin 6B) | 1 (active) | 0.57 |
| CXorf38 (chromosome X open reading frame 38) | 0.75 | 1.12 |
| CYP4A11 (cytochrome P450 family 4 subfamily A member 11) | 0.58 (active) | 0.64 |
| FCRL3 (Fc receptor like 3) | 0.63 | 1.02 |
| SLC20A2 | 1.17 | 0.48 |
| SPRED2 (sprouty related EVH1 domain containing 2) | 0.7 | 0.66 |
| PBX2 (PBX homeobox 2) | 0.81 | 1.18 |
| ZNF99 (zinc finger protein 99) | 0.35 | 1.04 |
| ZNF627 (zinc finger protein 627) | 0.85 | 1.11 |
| RAD51 (RAD51 recombinase) | -0.23 | 2.58 |
| MYCN (MYCN proto-oncogene, bHLH transcription factor) | 1.35 | 0.82 |
| VRK2 (VRK serine/threonine kinase 2) | 0.56 | 0.74 |
| PDGFRA (platelet derived growth factor receptor alpha) | 0.43 | 0.76 |
| CBLL2 (Cbl proto-oncogene like 2) | 1.18 | 0.78 |
| SYCE1 (synaptonemal complex central element protein 1) | 0.9 | 0.55 |
| GEM (GTP binding protein overexpressed in skeletal muscle) | 0.47 | 0.86 |
| CDS2 (CDP-diacylglycerol synthase 2) | 0.47 | 0.86 |
| ALAS2 (5'-aminolevulinate synthase 2) | 0.12 | 0.6 |

An excerpt from above, limited to “cell gain with vemurafenib”.
RNASEH2C (ribonuclease H2 subunit C): 0.54
PTPN13 (protein tyrosine phosphatase non-receptor type 13): 0.84
COPZ2 (coat protein complex I subunit zeta 2): -0.09
ZNRD2 (zinc ribbon domain containing 2): 0.39
